Test results published in PMC4408008.

Sequences of proteins named here, by UniProt entry; tags and fusion partners are left off.
UniProt Q96EB6: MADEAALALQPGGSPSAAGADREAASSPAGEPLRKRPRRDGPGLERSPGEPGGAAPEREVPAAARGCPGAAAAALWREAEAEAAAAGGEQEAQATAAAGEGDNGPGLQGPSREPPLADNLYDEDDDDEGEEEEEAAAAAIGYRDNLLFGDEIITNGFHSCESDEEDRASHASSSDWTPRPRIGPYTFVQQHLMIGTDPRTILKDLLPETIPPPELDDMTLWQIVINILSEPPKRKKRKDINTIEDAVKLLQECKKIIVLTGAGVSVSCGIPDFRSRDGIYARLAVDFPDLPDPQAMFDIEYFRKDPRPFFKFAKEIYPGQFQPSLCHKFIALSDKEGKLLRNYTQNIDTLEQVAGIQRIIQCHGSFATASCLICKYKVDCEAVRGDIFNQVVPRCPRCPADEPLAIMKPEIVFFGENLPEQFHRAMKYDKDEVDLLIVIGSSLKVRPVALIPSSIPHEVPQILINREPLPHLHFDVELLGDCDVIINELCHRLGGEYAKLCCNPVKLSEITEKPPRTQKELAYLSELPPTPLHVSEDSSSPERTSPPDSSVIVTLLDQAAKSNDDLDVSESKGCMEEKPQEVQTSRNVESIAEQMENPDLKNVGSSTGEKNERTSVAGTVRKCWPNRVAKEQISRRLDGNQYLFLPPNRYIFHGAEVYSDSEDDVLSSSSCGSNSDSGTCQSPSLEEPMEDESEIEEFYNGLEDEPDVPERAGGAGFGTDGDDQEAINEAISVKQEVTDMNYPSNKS
UniProt Q13263: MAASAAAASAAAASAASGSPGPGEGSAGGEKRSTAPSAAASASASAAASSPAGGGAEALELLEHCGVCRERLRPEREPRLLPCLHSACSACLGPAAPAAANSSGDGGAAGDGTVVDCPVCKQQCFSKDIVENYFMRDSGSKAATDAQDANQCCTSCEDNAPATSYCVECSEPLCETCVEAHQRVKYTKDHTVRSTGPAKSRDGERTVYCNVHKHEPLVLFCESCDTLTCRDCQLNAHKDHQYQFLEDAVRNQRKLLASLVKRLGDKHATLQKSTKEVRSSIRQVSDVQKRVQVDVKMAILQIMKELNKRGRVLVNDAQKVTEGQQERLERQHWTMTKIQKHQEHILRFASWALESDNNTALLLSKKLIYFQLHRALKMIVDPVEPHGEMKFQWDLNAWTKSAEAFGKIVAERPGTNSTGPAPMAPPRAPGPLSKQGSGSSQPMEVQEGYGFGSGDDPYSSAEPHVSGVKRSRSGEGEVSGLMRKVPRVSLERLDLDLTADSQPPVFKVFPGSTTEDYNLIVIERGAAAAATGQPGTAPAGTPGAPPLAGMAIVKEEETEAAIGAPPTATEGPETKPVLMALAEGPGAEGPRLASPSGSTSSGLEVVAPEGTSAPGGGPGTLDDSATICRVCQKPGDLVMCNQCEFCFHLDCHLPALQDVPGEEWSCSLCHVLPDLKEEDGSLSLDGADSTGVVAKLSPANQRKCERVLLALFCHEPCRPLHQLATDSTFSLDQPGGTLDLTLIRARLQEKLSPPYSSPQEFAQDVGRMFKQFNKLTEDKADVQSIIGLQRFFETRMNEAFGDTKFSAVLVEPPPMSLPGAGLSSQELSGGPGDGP

Molecular target: FLAG-tagged full-length (FL) SIRT1 (UniProt Q96EB6)
Test: affinity purification with mass spectrometry; immunoprecipitation of FLAG-tagged SIRT1 from HEK293T cells followed by mass spectrometric analysis

binding: binds
Substance: Krüppel associated box (KRAB)-associated protein 1 (KAP1), endogenous (from UniProt Q13263 1-835)

These are yes or no findings as the source states them, for the method shown. In cells and extracts the contact can be indirect. These calls come from enrichment with a bait or labelling near it, and not all partners need be listed.
